Values from PubChem BioAssay AID504774 (Drosophila RNAi Screening Center, 2011).
In all, the deposit lists about 23,000 reagents; shown is a random part of those that have a named target and a result. 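Values are quantile-normalised luminescence on an arbitrary scale; higher means more cells surviving MMS.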 Reagents against one gene are numbered here. A plus sign joins genes that one reagent is predicted to hit. Reagent sequences are not shown.

- Assay: 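Genes required for cells to withstand methyl methanesulphonate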 (primary screen)
- Cell system: Drosophila Kc167 cells
- Reagents: long dsRNA against Drosophila genes, about 0.25 µg dsRNA per well
- Duration: about 6 days: 3 days knock-down, then 3 days with or without MMS
- Treatment: methyl methanesulphonate 0.004% (w/v) for 3 days after knock-down
- Read-out: 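ATP-dependent luminescence as a measure of live cells in MMS-exposed wells, quantile normalised within each plate, with replicate values also given as a mean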
- Direction: mean viability with MMS and viability with MMS: higher = more surviving cells after MMS

gene | reagent | mean viability with MMS | viability with MMS, replicate 1 | viability with MMS, replicate 2
CG33331 + CG33332 | 1 | 3.46e6 | 3.95e6 | 3.94e6
Sec15 | 1 | 3.65e6 | 4.44e6 | 3.83e6
Ada2a | 1 | 3.61e6 | 4.04e6 | 4.14e6
Ada2a | 2 | 2.74e6 | 3.65e6 | 3.62e6
RpL10Aa | 1 | 3.45e6 | 3.96e6 | 3.84e6
CG8677 + CG31626 | 1 | 3.55e6 | 4.02e6 | 4.02e6
CG32606 (retired record) | 1 | 2.61e6 | 3.49e6 | 3.49e6
CG32606 (retired record) | 2 | 3.62e6 | 4.07e6 | 4.13e6
CG32606 (retired record) | 3 | 3.54e6 | 3.95e6 | 4.09e6
CG32606 (retired record) | 4 | 3.64e6 | 4.06e6 | 4.16e6
CG32606 (retired record) | 5 | 3.43e6 | 4.04e6 | 3.77e6
Acyp2 | 1 | 3.48e6 | 3.90e6 | 3.97e6
dop | 1 | 3.50e6 | 4.03e6 | 3.90e6
HtrA2 | 1 | 3.70e6 | 4.19e6 | 4.22e6
CG13067 | 1 | 3.55e6 | 4.00e6 | 4.04e6
Map205 | 1 | 3.36e6 | 3.82e6 | 3.84e6
Sys1 | 1 | 3.70e6 | 4.11e6 | 4.22e6
NetB | 1 | 3.54e6 | 3.93e6 | 4.05e6
sens-2 | 1 | 3.65e6 | 4.17e6 | 4.07e6
sens-2 | 2 | 3.55e6 | 4.02e6 | 4.01e6
sens-2 | 3 | 2.59e6 | 3.59e6 | 3.63e6
CG5139 | 1 | 3.64e6 | 4.09e6 | 4.20e6
CG43736 + CG33692 (retired record) | 1 | 3.67e6 | 4.07e6 | 4.25e6
CG43736 + CG33692 (retired record) | 2 | 3.78e6 | 4.20e6 | 4.41e6
SCCRO3 | 1 | 3.45e6 | 3.70e6 | 4.07e6
RpL12 | 1 | 2.81e6 | 3.42e6 | 3.42e6
Non2 | 1 | 3.31e6 | 3.69e6 | 3.88e6
zld | 1 | 3.52e6 | 3.90e6 | 4.09e6
zld | 2 | 3.33e6 | 3.74e6 | 3.92e6
zld | 3 | 3.62e6 | 4.03e6 | 4.18e6
nAChRalpha2 | 1 | 3.50e6 | 3.93e6 | 4.01e6
CheB38a | 1 | 3.66e6 | 3.92e6 | 4.10e6
Osi24 | 1 | 3.63e6 | 4.22e6 | 4.00e6
TMEM216 + CG11760 | 1 | 3.69e6 | 4.16e6 | 4.22e6
sca | 1 | 3.49e6 | 3.93e6 | 3.95e6
mat | 1 | 3.51e6 | 3.90e6 | 4.05e6
mat | 2 | 3.46e6 | 4.10e6 | 3.81e6
CG13540 | 1 | 3.42e6 | 3.77e6 | 3.96e6
CG14369 | 1 | 3.69e6 | 4.10e6 | 4.29e6
Srp68 | 1 | 3.59e6 | 4.00e6 | 4.14e6
CG31115 | 1 | 3.46e6 | 3.90e6 | 3.93e6
CG32812 | 1 | 3.61e6 | 4.00e6 | 4.20e6
htt | 1 | 3.56e6 | 4.01e6 | 4.06e6
Fibp | 1 | 3.70e6 | 4.15e6 | 4.17e6
CG17267 | 1 | 3.37e6 | 3.79e6 | 3.90e6
CG4984 + CG4975 | 1 | 3.55e6 | 4.04e6 | 4.00e6
CG4984 + CG4975 | 2 | 3.77e6 | 4.31e6 | 4.21e6
LysE | 1 | 3.66e6 | 4.10e6 | 4.16e6
spz | 1 | 3.61e6 | 4.03e6 | 4.15e6
CG17168 | 1 | 3.30e6 | 3.79e6 | 3.76e6
Jhbp3 | 1 | 3.44e6 | 3.93e6 | 3.83e6
Debcl | 1 | 3.56e6 | 4.02e6 | 4.09e6
Tbc1d8-9 | 1 | 3.35e6 | 3.85e6 | 3.73e6
CG13018 | 1 | 3.59e6 | 4.01e6 | 4.24e6
AsnRS | 1 | 3.41e6 | 3.68e6 | 4.00e6
CG31551 | 1 | 3.78e6 | 4.20e6 | 4.37e6
CG31551 | 2 | 3.78e6 | 4.23e6 | 4.18e6
CG30403 | 1 | 1.87e6 | 4.04e6 | 4.03e6
MAN1 | 1 | 3.52e6 | 4.19e6 | 3.82e6
Pur-alpha | 1 | 3.66e6 | 4.06e6 | 4.22e6
CG13717 (retired record) | 1 | 1.87e6 | 4.03e6 | 4.05e6
CG13717 (retired record) | 2 | 3.62e6 | 4.02e6 | 4.20e6
CG13717 (retired record) | 3 | 3.24e6 | 3.58e6 | 3.63e6
CG13717 (retired record) | 4 | 3.70e6 | 4.25e6 | 4.08e6
CG13717 (retired record) | 5 | 3.33e6 | 3.73e6 | 3.86e6
EMC5 | 1 | 3.67e6 | 4.18e6 | 4.12e6
BBS8 | 1 | 3.60e6 | 4.01e6 | 4.17e6
CG7130 | 1 | 3.44e6 | 3.77e6 | 4.02e6

Reformatted: entries from further up.
gene,reagent,mean viability with MMS,"viability with MMS, replicate 1","viability with MMS, replicate 2"
Tbc1d8-9,1,3.35e6,3.85e6,3.73e6
CG13018,1,3.59e6,4.01e6,4.24e6
AsnRS,1,3.41e6,3.68e6,4.00e6
CG31551,1,3.78e6,4.20e6,4.37e6
CG31551,2,3.78e6,4.23e6,4.18e6
CG30403,1,1.87e6,4.04e6,4.03e6
MAN1,1,3.52e6,4.19e6,3.82e6
Pur-alpha,1,3.66e6,4.06e6,4.22e6
CG13717 (retired record),1,1.87e6,4.03e6,4.05e6
CG13717 (retired record),2,3.62e6,4.02e6,4.20e6
